PubChem BioAssay AID1487 (National Center for Advancing Translational Sciences (NCATS), 2009)
Values joined by “and” are separate entries in the source; they are usually repeats but may differ in a detail not shown here. Equal entries are not always repeated. This is one part of the list. These are further read-outs of the screen, such as a control signal, another cell line or another target. No call is given for them. The list favours compounds with an active or inconclusive main result. The note in brackets gives the kind of curve behind each potency; many fits are weak.

Test: qHTS Assay for Modulators of Lamin A Splicing
Details: HeLa LMNA splicing GFP/RFP minigene ratio, 48 h
Outline: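 Read-out is the ratio of GFP to DsRed2 object intensity, acquired by 488 nm laser-scanning cytometry on HeLa lamin A-EGFP minigene reporter cells. Compound incubation 48 hrs at 37 °C in Opti-MEM with 2% FBS; DMSO 0.5% final.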

[1] = measured here: RFP viability control channel
[2] = measured here: GFP splicing reporter channel

SMILES	AC50 [1]	AC50 [2]
O=c1c2[nH]c3ccccc3c2ncn1CCC1=CCCCC1	0.1 µM [falling, full curve]	
COc1cc(NC(=O)Cn2nnc(-c3ccccc3N)n2)cc(OC)c1	8.91 µM [rising, partial curve, poor fit]	
Cc1ccc(-c2cc(C(=O)NCc3ccccn3)no2)cc1		11.2 µM [rising, partial curve, poor fit]
COC(=O)CN1C(=S)N(C)C(=O)/C1=C/c1cccs1		11.2 µM [falling, partial curve]
OC(COCc1ccc2c(c1)OCO2)CN1CCC(Cc2ccccc2)CC1 (centres undefined)		0.1 µM [rising, full curve, poor fit]
CC(=O)Nc1ccc(OCC(O)Cn2nc(C)c(Br)c2C)cc1 (centres undefined)	12.6 µM [rising, partial curve, poor fit]	
Cc1ccc(-c2nsc(SCC(=O)NCC3CCCO3)n2)cc1 (centres undefined)		5.62 µM [rising, single point]
Cc1nn(-c2ccccc2)c2sc(C(=O)NNC(=O)COc3cccc4ccccc34)cc12	15.8 µM [falling, partial curve]	11.2 µM [falling, partial curve]
CCCCCCN1C=CC=C/C1=C/C=C(C#N)C#N		11.2 µM [rising, single point]
O=C(NC1CCCC1)c1ccc(CSCc2ccccc2F)o1	11.2 µM [rising, single point]	
NC(=O)c1ccc(Nc2ccc([N+](=O)[O-])cc2[N+](=O)[O-])cc1	8.91 µM [falling, partial curve, poor fit]	
C/C(=N\NC(=S)NCc1ccccc1)c1ccc2ccccc2c1	35.5 µM [rising, single point]	35.5 µM [rising, single point]
O=C(CCl)N1N=C(c2ccco2)CC1c1cccs1 (centres undefined)	3.98 µM [falling, partial curve]	22.4 µM [falling, single point]
CNS(=O)(=O)c1ccc(NC(=O)C2c3ccccc3Oc3ccccc32)cc1		0.126 µM [rising, full curve, poor fit]
COc1ccc(-c2cc(CCCC(=O)NCCc3cc(OC)ccc3OC)no2)cc1	15.8 µM [rising, partial curve]	
Cc1cccc(/N=C/c2c(O)ccc3oc4c(c23)CCCC4)n1	20 µM [rising, single point]	
CC(=O)N1CCC(N(Cc2ccc(C)o2)C(=O)Nc2ccccc2F)CC1	35.5 µM [rising, partial curve, poor fit]	35.5 µM [rising, partial curve]
CN(C)CCNC(=O)/C(=C/c1ccc(-c2ccc(Cl)cc2)o1)NC(=O)c1ccccc1	35.5 µM [rising, single point]	35.5 µM [rising, single point]
COC(=O)c1ccc(NC(=O)c2c(NCc3cccc(F)c3)sc3c2CCCC3)cc1	14.1 µM [rising, partial curve]	1.12 µM [rising, full curve, poor fit]
Cc1cccc(N2CCN(S(=O)(=O)c3cc(C(=O)Nc4ccc(Oc5ccccc5)cc4)ccc3F)CC2C)c1 (centres undefined)		0.631 µM [falling, full curve]
COc1ccccc1C(c1c(O)cc(C)n(Cc2ccco2)c1=O)N1CCCCC1 (centres undefined)		0.631 µM [rising, partial curve, poor fit]
COc1cc(CC(=O)OCC(=O)c2ccc3c(c2)OCCO3)cc(OC)c1OC	7.94 µM [falling, partial curve, poor fit]	3.16 µM [falling, full curve]
Cc1csc2nc(CNS(=O)(=O)c3ccc(-c4ccccc4)cc3)cn12	17.8 µM [rising, partial curve]	15.8 µM [rising, partial curve, poor fit]
O=C(c1ccccc1)c1cc([N+](=O)[O-])ccc1N1CCCC1	17.8 µM [rising, partial curve]	2.24 µM [rising, full curve]
OC(CNCC1CCCO1)Cn1c2ccc(Br)cc2c2cc(Br)ccc21 (centres undefined)	35.5 µM [falling, single point]	35.5 µM [falling, single point]
Cc1ccc(S(=O)(=O)c2cccc(S(=O)(=O)N3CCCC3)c2)cc1S(=O)(=O)N1CCCC1	4.47 µM [rising, full curve]	5.62 µM [rising, single point]

SMILES	AC50 [1]	AC50 [2]
OC(CN1C2=NCCN2c2ccccc21)c1ccc2c(c1)OCO2 (centres undefined)	14.1 µM [rising, partial curve]	12.6 µM [rising, partial curve, poor fit]
Brc1ccccc1OCCOc1cccc2cccnc12	31.6 µM [rising, single point]	
CCN(CC)c1ccc2cc(-c3nnc(Nc4ccc(C)cc4)s3)c(=O)oc2c1		0.447 µM [rising, full curve]
Cc1cc(C)c(S(=O)(=O)NCc2ccc3c(c2)CCN3C(=O)c2ccccc2)c(C)c1		35.5 µM [falling, single point]
CCCC1=[N+](CC(=O)c2ccccc2)CCn2cccc21	28.2 µM [rising, single point]	12.6 µM [rising, single point]
COc1ccc(-c2cc(C(=O)N3CCN(C(c4ccccc4)c4ccccc4)CC3)no2)cc1OC	14.1 µM [rising, partial curve, poor fit]	7.94 µM [rising, partial curve, poor fit]
COCCNC(=S)NNC(=O)c1cccs1	0.0447 µM [falling, full curve, poor fit]	
COc1ccc(C(=O)Nc2ccc(S(=O)(=O)Nc3cc(C)nc(C)n3)cc2)cc1OC		0.631 µM [falling, partial curve, poor fit]
COc1ccc(CN2CCN(Cc3cccc4nonc34)CC2CCO)c(C)c1C (centres undefined)	1.41 µM [falling, full curve, poor fit]	
Cc1c(Br)c(C(=O)NCc2cc3cc(Cl)ccc3[nH]2)nn1C	12.6 µM [rising, single point]	
O=C(N/N=C/c1ccc(OC(F)F)cc1)c1cccc(S(=O)(=O)N2CCOCC2)c1	6.31 µM [falling, partial curve]	3.98 µM [falling, partial curve, poor fit]
Cc1ccc(-n2ncc3c(Nc4ccc(Oc5ccccc5)cc4)ncnc32)c(C)c1	6.31 µM [falling, partial curve, poor fit]	
CCOC(=O)C1CCCN(C(=O)C2CCN(c3nnc(-n4cccc4)s3)CC2)C1 (centres undefined)	0.0891 µM [falling, single point]	
Clc1cccc(CN2COc3c(cc(Cl)c4cccnc34)C2)c1	35.5 µM [rising, single point]	
CC(C)c1ccc2[nH]c(O)c(N=NC(=O)c3cccc(S(=O)(=O)N4CCCCC4)c3)c2c1	15.8 µM [rising, partial curve, poor fit]	1.26 µM [rising, full curve]
Cc1ccc(NC(=O)NC2=NN(c3ccccc3)C(=O)/C2=C2/CCCN2C)cc1	12.6 µM [rising, partial curve, poor fit]	
Cc1cc(Nc2cccc(C(F)(F)F)c2)nc2ccc(NC(=O)Cc3ccc(Cl)cc3)cc12	35.5 µM [falling, single point]	22.4 µM [falling, partial curve]
CCOC(=O)N1CCN(S(=O)(=O)c2ccc(C)cc2)C1c1ccc(OC)cc1 (centres undefined)	22.4 µM [rising, single point]	
Cc1cc(=O)n(Cc2cccc(Cl)c2)c2c1c(C)nn2C	0.00316 µM [falling, full curve, poor fit]	
COc1ccc(OC)c(NS(=O)(=O)c2ccc(NC(=O)c3ccc(NS(C)(=O)=O)cc3)cc2)c1	14.1 µM [rising, partial curve]	8.91 µM [rising, partial curve]
O=C1CC(SC(=Nc2ccccc2)Nc2ccccc2)C(=O)N1c1cccc(Cl)c1 (centres undefined)	35.5 µM [falling, single point]	35.5 µM [falling, single point]
CC(C)(C)NC(=O)[C@@H]1C[C@@H]2CCCC[C@@H]2CN1C[C@@H](O)[C@H](Cc1ccccc1)NC(=O)[C@H](CC(N)=O)NC(=O)c1ccc2ccccc2n1	12.6 µM [rising, partial curve]	14.1 µM [rising, partial curve]
Cc1nn(Cc2ccc(Cl)cc2)c(C)c1NC(=O)/C=C/c1cnn(C)c1	11.2 µM [rising, partial curve]	10 µM [rising, partial curve]
CCC(c1nnnn1CCOC)N1CCN(c2nc3ccccc3s2)CC1 (centres undefined)	1.12 µM [falling, partial curve]	
CCCCCN(CCCCC)C(=O)C(CCC(=O)O)NC(=O)c1ccc(Cl)c(Cl)c1 (centres undefined)	35.5 µM [falling, single point] and 63.1 nM [rising, full curve, poor fit]	35.5 µM [falling, single point]
CN1CCN(C(=O)c2ccc3c(=O)n4c(nc3c2)CCCCC4)CC1	0.178 µM [falling, full curve, poor fit]	

Exported field by field: entries from further up.
COc1ccc(OC)c(NS(=O)(=O)c2ccc(NC(=O)c3ccc(NS(C)(=O)=O)cc3)cc2)c1
  AC50 [1]: 14.1 µM [rising, partial curve]
  AC50 [2]: 8.91 µM [rising, partial curve]
O=C1CC(SC(=Nc2ccccc2)Nc2ccccc2)C(=O)N1c1cccc(Cl)c1 (centres undefined)
  AC50 [1]: 35.5 µM [falling, single point]
  AC50 [2]: 35.5 µM [falling, single point]
CC(C)(C)NC(=O)[C@@H]1C[C@@H]2CCCC[C@@H]2CN1C[C@@H](O)[C@H](Cc1ccccc1)NC(=O)[C@H](CC(N)=O)NC(=O)c1ccc2ccccc2n1
  AC50 [1]: 12.6 µM [rising, partial curve]
  AC50 [2]: 14.1 µM [rising, partial curve]
Cc1nn(Cc2ccc(Cl)cc2)c(C)c1NC(=O)/C=C/c1cnn(C)c1
  AC50 [1]: 11.2 µM [rising, partial curve]
  AC50 [2]: 10 µM [rising, partial curve]
